Here are results for one compound from ChEMBL document CHEMBL3616463, “Differential influence of 7 cations on 16 non-competitive NMDA receptor blockers” (Bioorg Med Chem Lett, 2015).

The test addresses Glutamate NMDA receptor. The test is classed as cell membranes, Rattus norvegicus, Wistar, Brain, Membrane.

The term IC50 denotes the concentration at which inhibition is half-maximal.

Consider `CNCCCC12CCC(c3ccccc31)c1ccccc12` [MAPROTILINE], for which the 50% inhibitory concentration (IC50) is 38 µM.
